US10618901B2 (GlaxoSmithKline Intellectual Property Development Limited, priority 2014, dated 2020)
Where two headings read alike, the source gives them in different places. Some of these results come from one statement about several compounds together.

By UniProt entry, the sequences of proteins in these tests, tags left out. Where a name states a change or a piece, a line headed by the entry shows the natural chain unless it says otherwise.
UniProt Q5S007: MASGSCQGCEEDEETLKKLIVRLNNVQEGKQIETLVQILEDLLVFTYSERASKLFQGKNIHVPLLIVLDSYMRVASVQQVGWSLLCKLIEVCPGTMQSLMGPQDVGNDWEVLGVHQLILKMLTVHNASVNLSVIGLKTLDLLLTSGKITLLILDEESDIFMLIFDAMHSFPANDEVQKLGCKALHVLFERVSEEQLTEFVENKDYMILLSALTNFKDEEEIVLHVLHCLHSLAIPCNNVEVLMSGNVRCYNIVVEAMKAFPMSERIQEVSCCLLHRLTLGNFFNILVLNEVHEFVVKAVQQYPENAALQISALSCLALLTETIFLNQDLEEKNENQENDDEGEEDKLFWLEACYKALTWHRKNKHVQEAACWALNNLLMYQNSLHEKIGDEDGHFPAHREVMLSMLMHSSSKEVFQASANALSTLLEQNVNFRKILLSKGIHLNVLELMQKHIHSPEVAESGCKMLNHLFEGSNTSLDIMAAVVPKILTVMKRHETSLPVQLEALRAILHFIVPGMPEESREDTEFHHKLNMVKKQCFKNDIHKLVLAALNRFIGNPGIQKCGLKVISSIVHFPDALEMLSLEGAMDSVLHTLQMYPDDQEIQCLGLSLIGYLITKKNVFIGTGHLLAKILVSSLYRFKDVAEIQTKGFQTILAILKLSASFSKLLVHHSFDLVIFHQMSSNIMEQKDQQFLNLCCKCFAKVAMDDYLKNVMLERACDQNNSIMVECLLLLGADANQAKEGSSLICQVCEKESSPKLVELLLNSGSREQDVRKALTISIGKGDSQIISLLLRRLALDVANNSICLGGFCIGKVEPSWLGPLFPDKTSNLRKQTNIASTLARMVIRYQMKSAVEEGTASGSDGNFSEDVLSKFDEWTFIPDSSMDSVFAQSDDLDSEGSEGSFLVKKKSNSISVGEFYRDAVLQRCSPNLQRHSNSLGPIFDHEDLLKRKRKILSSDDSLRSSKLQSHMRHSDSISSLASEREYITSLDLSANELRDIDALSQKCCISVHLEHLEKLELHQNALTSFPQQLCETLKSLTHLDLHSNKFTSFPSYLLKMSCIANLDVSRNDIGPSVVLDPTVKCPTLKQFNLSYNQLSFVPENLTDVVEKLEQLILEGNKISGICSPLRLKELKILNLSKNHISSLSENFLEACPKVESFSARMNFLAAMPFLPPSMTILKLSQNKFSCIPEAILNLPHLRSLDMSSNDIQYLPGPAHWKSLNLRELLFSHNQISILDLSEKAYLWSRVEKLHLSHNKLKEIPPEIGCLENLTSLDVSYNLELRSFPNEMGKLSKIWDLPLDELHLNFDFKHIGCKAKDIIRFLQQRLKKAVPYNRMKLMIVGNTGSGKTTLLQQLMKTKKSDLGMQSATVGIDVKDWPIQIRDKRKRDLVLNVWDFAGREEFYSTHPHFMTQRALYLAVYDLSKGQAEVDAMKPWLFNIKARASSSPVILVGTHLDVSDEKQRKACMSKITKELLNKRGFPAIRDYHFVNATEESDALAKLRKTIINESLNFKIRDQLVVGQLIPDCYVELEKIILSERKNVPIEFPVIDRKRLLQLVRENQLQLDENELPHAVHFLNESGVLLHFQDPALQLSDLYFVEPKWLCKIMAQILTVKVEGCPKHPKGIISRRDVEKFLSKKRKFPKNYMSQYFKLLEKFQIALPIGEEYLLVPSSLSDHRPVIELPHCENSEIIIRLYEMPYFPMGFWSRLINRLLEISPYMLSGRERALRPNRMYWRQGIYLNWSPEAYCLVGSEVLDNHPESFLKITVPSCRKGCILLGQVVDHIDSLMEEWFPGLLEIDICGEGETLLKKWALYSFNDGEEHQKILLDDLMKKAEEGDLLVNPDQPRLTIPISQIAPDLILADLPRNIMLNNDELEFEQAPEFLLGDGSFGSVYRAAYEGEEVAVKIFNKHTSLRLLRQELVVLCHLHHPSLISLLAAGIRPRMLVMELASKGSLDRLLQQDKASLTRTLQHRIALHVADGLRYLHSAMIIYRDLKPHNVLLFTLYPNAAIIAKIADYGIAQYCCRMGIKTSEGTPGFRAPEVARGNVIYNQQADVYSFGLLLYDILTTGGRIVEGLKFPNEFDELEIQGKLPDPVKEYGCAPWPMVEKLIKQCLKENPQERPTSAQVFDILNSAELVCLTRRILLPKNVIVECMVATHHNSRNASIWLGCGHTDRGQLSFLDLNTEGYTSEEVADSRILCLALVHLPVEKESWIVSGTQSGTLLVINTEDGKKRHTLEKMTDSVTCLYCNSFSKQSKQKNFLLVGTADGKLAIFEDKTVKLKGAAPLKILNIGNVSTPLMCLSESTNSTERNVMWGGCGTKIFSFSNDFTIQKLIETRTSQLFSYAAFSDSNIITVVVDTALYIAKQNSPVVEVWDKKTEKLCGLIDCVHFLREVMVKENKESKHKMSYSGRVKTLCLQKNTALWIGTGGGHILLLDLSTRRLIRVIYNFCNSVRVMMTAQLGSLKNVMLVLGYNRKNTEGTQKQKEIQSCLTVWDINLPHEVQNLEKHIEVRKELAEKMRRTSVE

Molecular target: T1, LRRK2 Ser935 phosphorylation in SH-SY5Y cells over-expressing recombinant full length LRRK2 (Homo sapiens, UniProt Q5S007)
T1 construct: A BacMam virus expressing full length recombinant LRRK2 was purchased from Invitrogen; host or cells: SH-SY5Y (BacMam transduction)
Assay: Recombinant cellular LRRK2 AlphaScreen assay
Format: cell-based
Text: Recombinant Cellular LRRK2 AlphaScreen Assay
To determine the activity of compounds against LRRK2 kinase activity in cells, the observed LRRK2 kinase-dependent modulation of LRRK2 Ser 935 phosphorylation (Dzamko et al., 2010, Biochem. J. 430: 405-413) was utilized to develop a quantitative 384 well plate-based immunoassay of LRRK2 Ser935 phosphorylation in the human neuroblastoma cell line SH-SY5Y, engineered to over-express recombinant full length LRRK2 protein.
A BacMam virus expressing full length recombinant LRRK2 was purchased from Invitrogen and amplified by inoculation of SF-9 cells at MOI 0.3 for 4-5 days in Sf-900 III SFM medium supplemented with 3% fetal bovine serum. Infected cell cultures were then centrifuged at 2000 g for 20 minutes, viral supernatant titer determined by anti-gp64 plaque assay and stored at 4° C.
Affinity-purified anti-phospho LRRK2 Ser935 sheep polyclonal antibody (Dzamko et al., 2010, Biochem. J. 430: 405-413) was biotinylated by standard methods (PerkinElmer). Anti-LRRK2 rabbit polyclonal antibody was purchased from Novus Biologicals. AlphaScreen Protein A IgG Kit (including acceptor and donor beads) was purchased from Perkin Elmer.
SH-SY5Y cells were grown in DMEM/F12 medium with 10% dialysed fetal bovine serum and harvested by treatment with 0.5% trypsin-EDTA for 5 minutes at 37° C. followed by centrifugation at 1000 rpm for 4 minutes. The cell pellet was resuspended in Opti-MEM reduced serum media (Invitrogen) at 200,000 cells/ml and mixed with the BacMam LRRK2 virus at M01=50. 50 μl cell solutions were then dispensed to each well of a 384-well plate and incubated at 37° C., 5% CO2 for 24 hours.
Serial dilutions of test compounds were prepared in Opti-MEM reduced serum media (Invitrogen) and 5.6 ul transferred from compound plate to cell assay plate to achieve a top final assay concentration of 10 uM. DMSO was used in certain wells as controls. Cells were incubated at 37° C., 5% CO2 for 60 minutes. The medium was then removed and cells lysed by addition of 20 ul cell lysis buffer (Cell Signaling Technology) and incubation at 4° C. for 20 minutes. 10 ul of antibody/acceptor bead mix [(1/1000 biotinylated-pS935 LRRK2 antibody, 1/1000 total-LRRK2 antibody, 1/100 Acceptor beads in AlphaScreen detection buffer (25 mM Hepes (pH 7.4), 0.5% Triton X-100, 1 mg/ml Dextran 500 and 0.1% BSA)] was then added to each well and plates incubated for 2 hours at ambient temperature in the dark. 10 μl of donor beads solution (1/33.3 donor beads in AlphaScreen detection buffer) was then added to each well. Following incubation for a further 2 hours at ambient temperature in the dark, plates were read on an EnVision™ plate reader at emission 520-620 nm with excitation 680 nm. Dose response curve data was based on sigmoidal dose-response model.

`CCOc1nc(Nc2cnn(C3CC(N4CCOCC4)CCC3(F)F)c2Cl)nc2[nH]ccc12` (single isomer, unassigned) [Example E147, trans-N-(5-chloro-1-(2,2-difluoro-5-morpholinocyclohexyl)-1H-pyrazol-4-yl)-4-ethoxy-7H-pyrrolo[2,3-d]pyrimidin-2-amine] was tested, and the “pIC50 in the recombinant cellular LRRK2 alphaScreen assay” value (“pIC50” for short) (text statement, listed as Example E147) was no less than 5.0.

In the case of `CCOc1nc(Nc2cnn(C3CCN(C4COC4)C3)c2C)nc2[nH]ccc12` (single isomer, unassigned) [Example E68, 4-ethoxy-N-(5-methyl-1-(1-(oxetan-3-yl)-pyrrolidin-3-yl)-1H-pyrazol-4-yl)-7H-pyrrolo-[2,3-d]pyrimidin-2-amine], the “pIC50” value (text statement) is reported as no less than 7.0 and the “pIC50” value (text statement, listed as Example E68) is reported as no less than 5.0.

For `CCOc1nc(Nc2cnn(C3CN(C4COC4)CCC3(F)F)c2C)nc2[nH]ccc12` (single isomer, unassigned) [Example E120, N-(1-(4,4-difluoro-1-(oxetan-3-yl)piperidin-3-yl)-5-methyl-1H-pyrazol-4-yl)-4-ethoxy-7H-pyrrolo[2,3-d]pyrimidin-2-amine], the “pIC50” value (text statement, listed as Example E120) was no less than 5.0.

For `CCOc1nc(Nc2cnn(CCN3CC[C@@H](F)C3)c2C)nc2[nH]ccc12` [Example E63, (R)-4-ethoxy-N-(1-(2-(3-fluoropyrrolidin-1-yl)-ethyl)-5-methyl-1H-pyrazol-4-yl)-7H-pyrrolo[2,3-d]pyrimidin-2-amine], the “pIC50” value was no less than 5.0.

In the case of `CCOc1nc(Nc2cnn(CCN3CC[C@H](F)C3)c2C)nc2[nH]ccc12` [Example E64, (S)-4-ethoxy-N-(1-(2-(3-fluoropyrrolidin-1-yl)ethyl)-5-methyl-1H-pyrazol-4-yl)-7H-pyrrolo[2,3-d]pyrimidin-2-amine], the “pIC50” value is reported as no less than 5.0.

For `CCOc1nc(Nc2cn(CC(C)(C)O)nc2Cl)nc2[nH]ccc12` [Example E7, 1-(3-chloro-4-((4-ethoxy-7H-pyrrolo-[2,3-d]-pyrimidin-2-yl)amino)-1H-pyrazol-1-yl)-2-methylpropan-2-ol], the “pIC50” value (text statement) was no less than 5.0.

For `CCOc1nc(Nc2cnn(C3CCOC3)c2C)nc2[nH]ccc12` (single isomer, unassigned) [Example E17, 4-ethoxy-N-(5-methyl-1-(tetrahydrofuran-3-yl)-1H-pyrazol-4-yl)-7H-pyrrolo-[2,3-d]pyrimidin-2-amine], the “pIC50” value (text statement, listed as Example E17) was no less than 5.0.

`CCOc1nc(Nc2cnn(C3CCCC3(C)O)c2C)nc2[nH]ccc12` (racemic) [Example E70, Trans-2-(4-((4-ethoxy-7H-pyrrolo-[2,3-d]pyrimidin-2-yl)amino)-5-methyl-1H-pyrazol-1-yl)-1-methylcyclopentanol] was tested, and the “pIC50” value was no less than 5.0.

With `CCOc1nc(Nc2cnn(C3CCCC3(C)O)c2C)nc2[nH]ccc12` (single isomer, unassigned) [Example E78, trans-2-(4-((4-ethoxy-7H-pyrrolo-[2,3-d]pyrimidin-2-yl)amino)-5-methyl-1H-pyrazol-1-yl)-1-methylcyclopentanol] the “pIC50” value (text statement, listed as Example E78) was no less than 5.0.

With `CCOc1nc(Nc2cnn(CC(C)(C)N3CCOCC3)c2C)nc2[nH]ccc12` [Example E88, 4-ethoxy-N-(5-methyl-1-(2-methyl-2-morpholinopropyl)-1H-pyrazol-4-yl)-7H-pyrrolo[2,3-d]pyrimidin-2-amine] the “pIC50” value was no less than 5.0.

In the case of `CCOc1nc(Nc2cnn(C3CCCC3O)c2C)nc2[nH]ccc12` (racemic) [Example E39, (±)-2-(4-((4-ethoxy-7H-pyrrolo[2,3-d]pyrimidin-2-yl)amino)-5-methyl-1H-pyrazol-1-yl)cyclopentanol], the “pIC50” value is reported as no less than 5.0.

With `CCOc1nc(Nc2cnn(C3CCCC3(C)O)c2C2CC2)nc2[nH]ccc12` (racemic) [Example E69, Trans-2-(5-cyclopropyl-4-((4-ethoxy-7H-pyrrolo-[2,3-d]pyrimidin-2-yl)amino)-1H-pyrazol-1-yl)-1-methylcyclopentanol] the “pIC50” value (text statement) was no less than 5.0.

In the case of `CCOc1nc(Nc2cnn(C3CN(C)CC3F)c2C)nc2[nH]ccc12` (single isomer, unassigned) [Example E60, 4-ethoxy-N-(1-(4-fluoro-1-methylpyrrolidin-3-yl)-5-methyl-1H-pyrazol-4-yl)-7H-pyrrolo-[2,3-d]pyrimidin-2-amine], the “pIC50” value (text statement, listed as Example E60) is reported as no less than 5.0.

In the case of `CCOc1nc(Nc2cnn(C3CCOCC3C)c2C)nc2[nH]ccc12` (single isomer, unassigned) [Example E116, (trans)-4-ethoxy-N-(5-methyl-1-(3-methyltetrahydro-2H-pyran-4-yl)-1H-pyrazol-4-yl)-7H-pyrrolo[2,3-d]pyrimidin-2-amine], the “pIC50” value (text statement, listed as Example E116) is reported as no less than 5.0.

With `CCOc1nc(Nc2cnn([C@H]3CCN(C)C3)c2C)nc2[nH]cc(C#N)c12` [Example E49, (S)-4-ethoxy-2-((5-methyl-1-(1-methyl-pyrrolidin-3-yl)-1H-pyrazol-4-yl)-amino)-7H-pyrrolo-[2,3-d]pyrimidine-5-carbonitrile] the “pIC50” value was no less than 5.0.

`CCOc1nc(Nc2cnn(CCN3CCOCC3)c2C)nc2[nH]ccc12` [Example E45, 4-ethoxy-N-(5-methyl-1-(2-morpholinoethyl)-1H-pyrazol-4-yl)-7H-pyrrolo-[2,3-d]pyrimidin-2-amine] was tested, and the “pIC50” value was no less than 5.0.

`CCOc1nc(Nc2cnn(CCN3CC(F)(F)C3)c2C)nc2[nH]ccc12` [Example E89, N-(1-(2-(3,3-difluoroazetidin-1-yl)ethyl)-5-methyl-1H-pyrazol-4-yl)-4-ethoxy-7H-pyrrolo [2,3-d]pyrimidin-2-amine] was tested, and the “pIC50” value (text statement) was no less than 5.0.

In the case of `CCOc1nc(Nc2cnn(C3CCN(C4COC4)CC3F)c2Cl)nc2[nH]ccc12` (single isomer, unassigned) [Example E107, cis-N-(5-chloro-1-(3-fluoro-1-(oxetan-3-yl)piperidin-4-yl)-1H-pyrazol-4-yl)-4-ethoxy-7H-pyrrolo[2,3-d]pyrimidin-2-amine], the “pIC50” value (text statement, listed as Example E107) is reported as no less than 5.0.

With `CCOc1nc(Nc2cnn(C3CN(C4COC4)CCO3)c2Cl)nc2[nH]ccc12` (racemic) [Example E140, (±)-N-(5-chloro-1-(4-(oxetan-3-yl)morpholin-2-yl)-1H-pyrazol-4-yl)-4-ethoxy-7H-pyrrolo [2,3-d]pyrimidin-2-amine] the “pIC50” value was no less than 5.0.

`CCOc1nc(Nc2cnn(C3CN(C4COC4)CCO3)c2Cl)nc2[nH]ccc12` (single isomer, unassigned) [Example E141, N-(5-chloro-1-(4-(oxetan-3-yl)morpholin-2-yl)-1H-pyrazol-4-yl)-4-ethoxy-7H-pyrrolo[2,3-d]pyrimidin-2-amine] was tested, and the “pIC50” value (text statement, listed as Example E141) was no less than 5.0.

With `CCOc1nc(Nc2cnn([C@@H]3CCN(CC(F)F)C3)c2C)nc2[nH]ccc12` [Example E85, (R)—N-(1-(1-(2,2-difluoroethyl)pyrrolidin-3-yl)-5-methyl-1H-pyrazol-4-yl)-4-ethoxy-7H-pyrrolo[2,3-d]pyrimidin-2-amine] the “pIC50” value was no less than 5.0.

`CCOc1nc(Nc2cnn([C@@H]3CCO[C@H](C)C3)c2C)nc2[nH]ccc12` (single isomer, unassigned) [Example E42] was tested, and the “pIC50” value (text statement, listed as Example E42) was no less than 5.0.

For `CCOc1nc(Nc2cnn(C3CCOCC3)c2OC)nc2[nH]ccc12` [Example E20, 4-ethoxy-N-(5-methoxy-1-(tetrahydro-2H-pyran-4-yl)-1H-pyrazol-4-yl)-7H-pyrrolo-[2,3-d]-pyrimidin-2-amine], the “pIC50” value (text statement) was no less than 5.0.

For `CCOc1nc(Nc2cnn(CCN3CCO[C@@H](C)C3)c2C)nc2[nH]ccc12` [Example E84, (S)-4-ethoxy-N-(5-methyl-1-(2-(2-methylmorpholino)ethyl)-1H-pyrazol-4-yl)-7H-pyrrolo [2,3-d]pyrimidin-2-amine], the “pIC50” value was no less than 5.0.
